From patent publication US20110144353A1, “5-HYDROXY-4-AMINOMETHYL-1-C[…] (CYCLOHEPTYL)--3-ALKO[…] DERIVATIVES, PHARMA[…] SALTS THEREOF AND A METHOD FOR THE PRODUCTION THEREOF” (OBSCHESTVO S ORGANICHENNOY OTVETSTVENNOSTJU <<BINATEKH>>, priority 2008, published 2011)
For at least one compound, name, drawing or mass did not settle the structure.

System: influenza A/Aichi/2/69 (H3N2) virus
Assay: Murine influenza pneumonia model
Format: in vivo, mice
Conditions: 15 mg/kg/day
Protocol: Determination of the efficacy of the compounds in the murine influenza pneumonia model.
The experiments were carried out on 60 white mice weighing 12-15 g. The animals were infected intranasally under light ether anesthesia with the influenza A/Aichi/2/69 (H3N2) virus (10 LD50). The compounds to be tested were administered per os in a dose of 60 or 15 mg/kg/day. The treatment was carried out according to the following scheme: 24 hours and 1 hour before infection, and then 2 times a day (at 8 o'clock in the morning and 8 o'clock in the evening) for 5 days. The chemotherapeutic activity of Arbidol and compound A in the murine influenza pneumonia model was assessed according to two criteria: the index of protection against fatal viral infection and the increase in mean life span of the treated animals as compared with the control group. The mean life span of the mice was calculated according to the following formula: Σf(d−1)/n, where f is the number of mice dying on day d (the surviving mice were also included in f; d in this case=16); n is the number of mice in the group.

With CCOC(=O)c1c(CSc2ccccc2)n(C)c2cc(Br)c(O)c(CN(C)C)c12 [Arbidol, 1-methyl-2-phenylthiomethyl-3-carbethoxy-4-dimethylaminomethyl-5-oxy-6-bromindol] the “Efficacy in animal experiments” value was “practically inactive”.
